# Source: PubChem BioAssay AID1671190 (National Center for Advancing Translational Sciences (NCATS), 2021)
# Protein sequences, listed by entry. Tags and fused reporters are not part of them. Lines headed by an entry give the natural chain unless they say otherwise; changes in a name come on top.
# UniProt P18054: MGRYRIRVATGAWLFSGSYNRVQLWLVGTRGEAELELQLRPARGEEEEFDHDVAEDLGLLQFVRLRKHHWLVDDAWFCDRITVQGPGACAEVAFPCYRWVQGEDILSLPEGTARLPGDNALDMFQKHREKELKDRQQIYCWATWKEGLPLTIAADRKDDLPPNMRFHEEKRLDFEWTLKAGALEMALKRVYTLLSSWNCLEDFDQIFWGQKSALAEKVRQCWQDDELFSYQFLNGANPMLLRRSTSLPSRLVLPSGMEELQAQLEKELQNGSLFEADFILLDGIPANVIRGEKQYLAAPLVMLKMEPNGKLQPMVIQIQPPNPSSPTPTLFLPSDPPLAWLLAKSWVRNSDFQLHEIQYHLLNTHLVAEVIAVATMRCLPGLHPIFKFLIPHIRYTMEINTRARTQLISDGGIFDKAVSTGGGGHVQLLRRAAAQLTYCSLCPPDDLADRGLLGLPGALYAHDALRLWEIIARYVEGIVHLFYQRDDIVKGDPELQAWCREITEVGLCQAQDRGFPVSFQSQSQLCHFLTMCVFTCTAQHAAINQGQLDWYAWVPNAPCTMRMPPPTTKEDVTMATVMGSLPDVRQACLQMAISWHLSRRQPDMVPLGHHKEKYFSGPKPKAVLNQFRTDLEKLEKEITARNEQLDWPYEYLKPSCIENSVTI
# The campaign covered roughly 580,000 compounds. About 6,100 (1.1%) were called active. The inconclusive results got no clear call from the source; some entries with a clear call stand among them for comparison. The call rests on the fitted dose curve; in most records, active means well fitted inhibition curve with a large enough effect; inconclusive means small, poorly fitted or top-dose-only effect, or another doubt; inactive means no such curve, though single readings can be large or run the other way. Potencies beside an inconclusive call are fits to weak or partial responses and may not hold up.
# Biological target: Polyunsaturated fatty acid lipoxygenase ALOX12 (Homo sapiens) (UniProt P18054)
# Test: Primary qHTS assay for inhibitors of human arachidonate 12S-lipoxygenase (ALOX12): Round 2
# Conditions: purified 12hLO, xylenol orange hydroperoxide absorbance; activity change, negative = inhibition: at 108 µM (top of the series) unless noted
# In short: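 Purified human 12hLO (150 nM final) in 25 mM Hepes, 0.01% Triton X-100, pH 7.0 was preincubated 15 min at room temperature with compound. Then 40 uM arachidonic acid was added, 30 min. Hydroperoxide was read by Fe-XO absorbance ratio 573/405 nm.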
# On the % scale 0 is the no-effect control and ±100 the full control effect; potency means the concentration at half of the fitted maximal effect.
Structure (SMILES),Potency,"activity change, negative = inhibition"
COc1ccc(-c2nc3cnc(Nc4cccc(OC(F)(F)F)c4)cc3n2C)cc1OC,"inconclusive: 89.1 µM [inhibitor, partial curve, poor fit]",–
Cc1cc(=O)oc2cc(NC(=S)NCc3ccccn3)ccc12,"inconclusive: 126 µM [inhibitor, single point]",–
COc1ccc(-c2csc(-c3nc(-c4ccc(Br)s4)cs3)n2)cc1F,–,inactive: -18.1%
O=C(O)c1ccc(S(=O)(=O)Nc2ccc(F)c(Cl)c2)cc1,"inconclusive: 50.1 µM [inhibitor, partial curve, poor fit]",–
O=C(CNc1ccc(F)cc1)N/N=C/c1c(O)ccc2ccccc12,"inconclusive: 44.7 µM [inhibitor, partial curve, poor fit]",–
CC(O)c1nc2ccccc2n1Cc1ccccc1 (stereo unspecified),"inconclusive: 35.5 µM [inhibitor, partial curve, poor fit]",–
CC1(C)Oc2cc3oc(-c4cc(O)cc(O)c4)cc3cc2CC1O (stereo unspecified),"inconclusive: 100 µM [inhibitor, single point]",–
O=c1cc(N2CCOCC2)oc2c(NCc3ccncc3)nccc12,"inconclusive: 56.2 µM [inhibitor, full curve]",–
CC1=C[C@@H](CNS(=O)(=O)c2cccs2)[C@H](C(C)C)C[C@H]1CC(=O)NCc1ccc(C#N)cc1,"inconclusive: 31.6 µM [inhibitor, full curve]",–
Cc1nc(Nc2ccc(S(N)(=O)=O)cc2)sc1-c1ccccc1,"inconclusive: 100 µM [inhibitor, partial curve, poor fit]",–
CN1C[C@H](NCc2nccs2)CCC[C@@H](C(=O)NC2CCOCC2)CC1=O,–,inactive: 6.73% [at 176 µM]
CC(Cl)C(=O)NN=C(c1ccccc1)c1ccccc1 (stereo unspecified),–,inactive: 5.73%
N#Cc1ccc(/C=N/NC(=O)c2cccc(S(=O)(=O)N3CCOCC3)c2)cc1,"inconclusive: 141 µM [inhibitor, single point]",–
CCCC1=Nc2cc(C(=O)NCCc3ccc(OCC)cc3)ccc2Sc2ccccc21,–,inactive: -22.3%
Cc1cc(C(=O)CSc2ccc(Cl)cc2)c(C)[nH]1,"inconclusive: 44.7 µM [inhibitor, partial curve, poor fit]",–
CCc1cccc2c(C(CC(=O)N3CCCC3)c3ccc(Cl)c(Cl)c3)c[nH]c12 (stereo unspecified),"inconclusive: 22.4 µM [inhibitor, full curve]",–
COc1ccccc1CNC(=O)COC(=O)C1CCN(S(=O)(=O)c2ccccc2)CC1,–,inactive: -21.5%
Cc1ccc(NC(=O)C2CCN(C(=O)[C@@H]3Cc4ccccc4CN3)CC2)cc1,–,inactive: -8.12%
CC(C)(C)N/N=C/c1c(O)n(-c2ccc(Cl)cn2)c(=O)c2ccccc12,"inconclusive: 11.2 µM [inhibitor, full curve]",–
COCCn1c(=O)c(C)nc2cnc(Nc3cccc(OC)c3)nc21,"inconclusive: 35.5 µM [inhibitor, single point]",–
CN(C)c1ccc(P(=O)(OC2CCCCC2)C(Nc2ccccc2)c2cccnc2)cc1 (stereo unspecified),"inconclusive: 112 µM [inhibitor, single point]",–
COc1ccc(-c2nc(N)nc(C(F)(F)F)c2-c2csc(C)n2)c(O)c1,–,inactive: -15.7%

# As entered above.
# Potency, O=c1cc(N2CCOCC2)oc2c(NCc3ccncc3)nccc12 reads inconclusive: 56.2 µM [inhibitor, full curve]
# activity change, negative = inhibition, COc1ccccc1CNC(=O)COC(=O)C1CCN(S(=O)(=O)c2ccccc2)CC1 reads inactive: -21.5%

# (next part)

Structure (SMILES),Potency,"activity change, negative = inhibition"
Cc1cc(N2CCOCC2)nc(NCc2ccccc2)n1,–,inactive: 16.2%
COc1cc2c(-c3ccccc3O)nc3c(c(C)nn3-c3ccccc3)c2cc1OC,–,inconclusive: -36.1% [inhibitor]
CC(C)(O)C#Cc1ccc(N2C(c3ccsc3)=Cc3ccc(F)cc3C2c2c[nH]c3ccc(C#N)cc23)cc1 (stereo unspecified),"inconclusive: 50.1 µM [inhibitor, single point]",–
COc1cc(Nc2cc3[nH]c(-c4ccccc4)cc3cn2)cc(C(F)(F)F)c1,"inconclusive: 35.5 µM [inhibitor, partial curve]",–
COc1cccc(CN2CC(C(=O)N3CCN(c4ccc(Cl)cc4)CC3)CCC2=O)c1 (stereo unspecified),–,inactive: 104%
S=c1[nH]nc(-c2ccc(Cl)cc2Cl)n1-c1ccc2c(c1)OCCO2,"inconclusive: 44.7 µM [inhibitor, partial curve, poor fit]",–
CC(C)(C)C(=O)O/N=C1/C(=O)N(c2ccccc2)c2ccccc21,"inconclusive: 89.1 µM [inhibitor, single point]",–
Cc1ccc(C(=O)Nc2ccc3c(c2)nc(CSc2nccc(C)n2)n3C)cc1,–,inactive: 0.225%
O=C(CC(c1ccco1)S(=O)(=O)c1ccccc1)c1ccc(F)cc1 (stereo unspecified),"inconclusive: 39.8 µM [inhibitor, partial curve, poor fit]",–
O=[N+]([O-])c1ccccc1/C=N/N1CCN(c2ccncc2S(=O)(=O)N2CCCCC2)CC1,–,inactive: -12.5%
CNC(=O)[C@@H]1CN(C(=O)c2ccc(Br)cc2F)C[C@H]1CO,–,inactive: 53.2%
COc1ccc(CCNC(=O)c2cc3c(s2)-c2c(C)cccc2OC3)cc1OC,"inconclusive: 44.7 µM [inhibitor, partial curve, poor fit]",–
C=CCc1ccc(OC(=O)NC2CCCCC2)c(OC)c1,"inconclusive: 112 µM [inhibitor, partial curve, poor fit]",–
Cc1oc(=O)c(NC(=O)c2cccc(Cl)c2)cc1C(=O)c1ccccc1,"inconclusive: 2.82 µM [inhibitor, full curve, poor fit]",–
Cc1cc(=O)oc2cc(NC(=O)N(C)Cc3ccccc3Br)ccc12,"inconclusive: 56.2 µM [inhibitor, partial curve, poor fit]",–
NC(=O)c1cc[n+](Cc2ccccc2Cl)cc1,"inconclusive: 39.8 µM [inhibitor, single point]",–
COC(=O)C(CC(C)C)N1CCC(=O)c2ccccc2S1(=O)=O (stereo unspecified),"inconclusive: 141 µM [inhibitor, single point]",–
O=C(NCc1ccc2c(c1)OCO2)c1ccc2c(c1)N(Cc1cccc(Cl)c1)C(=O)c1ccccc1S2=O (stereo unspecified),"inconclusive: 112 µM [inhibitor, partial curve, poor fit]",–
O=C(CN1C(=O)S/C(=C\c2ccccc2F)C1=O)NC1C=CS(=O)(=O)C1 (stereo unspecified),–,inactive: -16.4%
CCn1ccnc1CN1CCCC(CCc2ccc(OC)cc2)C1 (stereo unspecified),–,inactive: 63.4%
CN1C(=O)NC(NC(=O)c2ccncc2)(C(F)(F)F)C1=O (stereo unspecified),"inconclusive: 14.1 µM [inhibitor, full curve, poor fit]",–
O=C(NCc1ccccn1)C1CC(c2ccccc2O)=NO1 (stereo unspecified),"inconclusive: 1.58 µM [inhibitor, full curve, poor fit]",–

Structure (SMILES),Potency,"activity change, negative = inhibition"
CC(=O)c1ccc(S(=O)(=O)Nc2ccc(-c3ccc4nncn4n3)cc2)cc1,"inconclusive: 70.8 µM [inhibitor, partial curve, poor fit]",–
O=C(NCc1nnc2ccc(-c3ccc(F)cc3)nn12)c1cccc(OC(F)(F)F)c1,"inconclusive: 50.1 µM [inhibitor, partial curve, poor fit]",–
N#Cc1ccccc1CN1CCN(c2ncc(C(=O)NCc3ccco3)s2)C1=O,–,inactive: 7.08%
Cc1c(F)cccc1NC(=O)CCCCCC1NC(=O)NC1C (stereo unspecified),–,inactive: 2.51%
Cc1ccc(CSC2=Nc3ccccc3C3=NC(CCC(=O)NCc4cccs4)C(=O)N23)cc1 (stereo unspecified),–,inactive: -3.69%
CCC(CO)Oc1cc(NC(=O)c2ccc(Cl)cc2)c2ncn(C(C)C)c2c1 (stereo unspecified),active: 3.16 µM,–
COC(=O)c1ccc(NS(=O)(=O)c2ccc(C)cc2)c(C)c1,"inconclusive: 50.1 µM [inhibitor, partial curve, poor fit]",–
CCN(CCCNC(=O)c1ccc(Sc2ccc(F)cc2)c(NC(C)=O)c1)c1ccccc1,–,inactive: -11.8%
CC(OC(=O)c1cc(C2CC2)nn1-c1ccccc1)C(=O)Nc1ccccc1 (stereo unspecified),–,inactive: 13.9%
Cc1cnc(NC(=O)C2CC(=O)N(c3ccc4c(c3)OCCO4)C2)s1 (stereo unspecified),–,inactive: -10.3%
CCN(CC)C(=O)CSc1nc2cc3c(cc2c(=O)n1CCCCCC(=O)NCc1ccc(OC)cc1)OCO3,"inconclusive: 112 µM [inhibitor, partial curve, poor fit]",–
Cc1sc2ncnc(N3CCC(C(=O)Nc4ccc(C#N)cc4)CC3)c2c1C,"inconclusive: 79.4 µM [inhibitor, partial curve, poor fit]",–
COc1ccc2[nH]c(C(=O)N3CCC4(CC3)CC(c3nc(C)no3)N(C)C4)cc2c1 (stereo unspecified),"inconclusive: 17.8 µM [inhibitor, full curve]",–
O=C(Cn1cnc2sc3c(c2c1=O)CCCC3)NCCC(=O)N1CCC(Cc2ccccc2)CC1,"inconclusive: 112 µM [inhibitor, single point]",–
Cc1ccc(-c2nc3c(C)cccn3c2Nc2ccccc2C)s1,"inconclusive: 44.7 µM [inhibitor, partial curve, poor fit]",–
N#Cc1c(NC(=O)Cn2c(=O)oc3ccccc32)oc(-c2ccccc2)c1-c1ccccc1,"inconclusive: 20 µM [inhibitor, partial curve, poor fit]",–
O=C(NC(=O)c1ccc(Cl)cc1)OC1CCCCC1,"inconclusive: 31.6 µM [inhibitor, partial curve, poor fit]",–
CCN(CC)CCn1cnc2c1c(=O)n(CCOC(=O)c1cc(OC)c(OC)c(OC)c1)c(=O)n2C,"inconclusive: 79.4 µM [inhibitor, partial curve, poor fit]",–
COc1ccc(/C=N/n2c(-c3n[nH]c4c3CCC4)n[nH]c2=S)cc1,"inconclusive: 39.8 µM [inhibitor, partial curve, poor fit]",–
CS(=O)(=O)c1ccc2nc(NC(=O)/C=C/c3cccs3)sc2c1,"inconclusive: 89.1 µM [inhibitor, partial curve, poor fit]",–
COc1ccc(NC(=O)CSc2nc3cccnc3n2C)cc1,–,inactive: 3.45%
COc1cccc(C(=O)NCc2ccc(C)cc2)c1,"inconclusive: 4.47 µM [inhibitor, full curve, poor fit]",–

# Single records, from the list above. Order of values: Potency	activity change, negative = inhibition
# `CC(OC(=O)c1cc(C2CC2)nn1-c1ccccc1)C(=O)Nc1ccccc1` (stereo unspecified) is listed as –	inactive: 13.9%
# `CCN(CC)CCn1cnc2c1c(=O)n(CCOC(=O)c1cc(OC)c(OC)c(OC)c1)c(=O)n2C` is listed as inconclusive: 79.4 µM [inhibitor, partial curve, poor fit]	–
